Assay results as given in PMC8058344, “ARIH1 signaling promotes anti-tumor immunity by targeting PD-L1 for proteasomal degradation” (Nature Communications, 2021).
No constants are given. Whether binding was seen depends on the method and setting. In cells and extracts the contact can be indirect. Some results given as binding are weak or reduced against the parent protein; the word gives no strength.

By UniProt entry, the sequences of proteins in these tests, tags left out. Residues count along the entry.
UniProt Q9NZQ7, residues 19-290: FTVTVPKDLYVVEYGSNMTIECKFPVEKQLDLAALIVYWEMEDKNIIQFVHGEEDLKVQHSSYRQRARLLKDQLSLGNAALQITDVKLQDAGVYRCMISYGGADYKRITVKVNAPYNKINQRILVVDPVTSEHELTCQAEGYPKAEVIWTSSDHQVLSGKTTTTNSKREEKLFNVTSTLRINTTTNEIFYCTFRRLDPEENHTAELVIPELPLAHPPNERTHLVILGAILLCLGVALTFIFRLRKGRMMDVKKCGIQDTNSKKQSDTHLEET
UniProt Q9Y4X5: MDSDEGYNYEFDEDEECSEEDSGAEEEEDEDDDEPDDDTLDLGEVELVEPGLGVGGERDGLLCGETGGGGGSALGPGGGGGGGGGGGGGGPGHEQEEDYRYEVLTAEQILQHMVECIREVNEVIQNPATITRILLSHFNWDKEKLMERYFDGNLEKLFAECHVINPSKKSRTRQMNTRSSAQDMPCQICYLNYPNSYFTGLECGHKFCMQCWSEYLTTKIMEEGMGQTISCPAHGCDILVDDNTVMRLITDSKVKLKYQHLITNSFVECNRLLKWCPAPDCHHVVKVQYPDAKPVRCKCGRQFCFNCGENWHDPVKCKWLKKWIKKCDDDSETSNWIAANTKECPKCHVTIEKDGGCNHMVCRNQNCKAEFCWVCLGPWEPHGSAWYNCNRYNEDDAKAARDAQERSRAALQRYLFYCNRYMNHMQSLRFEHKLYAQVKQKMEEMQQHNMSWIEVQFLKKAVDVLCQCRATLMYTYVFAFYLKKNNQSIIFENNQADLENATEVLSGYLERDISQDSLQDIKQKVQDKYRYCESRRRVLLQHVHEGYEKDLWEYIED
UniProt P49840: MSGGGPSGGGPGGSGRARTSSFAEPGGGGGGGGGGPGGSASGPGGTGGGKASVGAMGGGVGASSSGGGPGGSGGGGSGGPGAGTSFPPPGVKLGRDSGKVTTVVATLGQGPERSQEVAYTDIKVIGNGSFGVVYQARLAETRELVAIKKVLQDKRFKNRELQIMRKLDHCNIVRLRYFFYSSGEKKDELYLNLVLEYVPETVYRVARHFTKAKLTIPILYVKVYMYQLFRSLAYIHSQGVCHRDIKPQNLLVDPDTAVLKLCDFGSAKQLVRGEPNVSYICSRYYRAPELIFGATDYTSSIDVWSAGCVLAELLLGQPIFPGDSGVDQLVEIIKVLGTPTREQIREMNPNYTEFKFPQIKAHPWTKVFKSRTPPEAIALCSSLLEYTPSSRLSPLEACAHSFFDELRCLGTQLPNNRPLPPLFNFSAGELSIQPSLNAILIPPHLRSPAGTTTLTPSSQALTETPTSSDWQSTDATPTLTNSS

Columns and labels:
[1] = biological target: Flag-PD-L1 (WT) (human) (UniProt Q9NZQ7); test: co-IP; Flag-PD-L1 (WT or mutant) immunoprecipitated from transfected HEK293T lysates, blot for endogenous GSK3α/GSK3β or HA-ARIH1; RIPA buffer (1% Triton X-100, 100 mM Tris-HCl pH 8.8, 100 mM NaCl, 0.5 mM EDTA), 4 °C; cells with or without 10 μM ES-072, tunicamycin or 10 μM MG132
[2] = biological target: Flag-PD-L1 (WT) (human) (UniProt Q9NZQ7); test: proximity ligation; Duolink PLA in fixed HEK293T cells transfected with Flag-PD-L1, with or without 10 μM ES-072 for 12 h
[3] = biological target: HA-ARIH1 (WT) (UniProt Q9Y4X5); test: co-IP; HEK293T cells transfected with HA-ARIH1 (HA-tagged empty vector as negative control); endogenous PD-L1 detected by blot

binding [1]	binding [2]	Substance	binding [3]
binds	binds	endogenous GSK3α (from UniProt P49840 1-483) (enzyme)	–
–	–	endogenous PD-L1 (from UniProt Q9NZQ7 19-290)	binds
